Measured values taken from US6559281B1, “Non-naturally occurring synthetic lytic peptides” (priority 1993, dated 2003).

Target: T1, Trypsin (Bos taurus, UniProt P00760)
T1 sequence (P00760 24-246): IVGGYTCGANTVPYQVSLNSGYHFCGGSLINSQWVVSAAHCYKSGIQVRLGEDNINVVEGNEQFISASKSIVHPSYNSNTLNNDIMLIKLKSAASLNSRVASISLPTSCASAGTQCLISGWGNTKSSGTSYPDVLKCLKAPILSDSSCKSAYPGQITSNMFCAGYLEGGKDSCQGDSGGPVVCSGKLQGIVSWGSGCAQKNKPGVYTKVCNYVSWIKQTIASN
Assay: Proteolytic resistance to trypsin digestion, quantified with modified TNBS assay
Conditions: HEPES pH 7.78, incubated 30 minutes, 440 nm

SMILES: CC(C)C[C@H](NC(=O)[C@H](C)NC(=O)[C@H](CCCCN)NC(=O)[C@H](CCCCN)NC(=O)[C@H](CC(C)C)NC(=O)[C@H](C)NC(=O)[C@H](CCCCN)NC(=O)[C@H](CCCCN)NC(=O)[C@H](CC(C)C)NC(=O)[C@H](CCCCN)NC(=O)[C@H](CCCCN)NC(=O)[C@H](CC(C)C)NC(=O)[C@H](C)NC(=O)[C@H](CCCCN)NC(=O)[C@H](CCCCN)NC(=O)[C@H](CC(C)C)NC(=O)[C@H](C)NC(=O)[C@H](CCCCN)NC(=O)[C@H](CC(C)C)NC(=O)[C@H](C)NC(=O)[C@H](CC(C)C)NC(=O)[C@H](C)NC(=O)[C@@H](N)Cc1ccccc1)C(=O)O [DP-1]
- change in the number of primary amino groups before and after trypsin digestion: an increase
